{"source": "PubChem BioAssay AID2685", "about": "(National Center for Advancing Translational Sciences (NCATS), 2010)", "experiment": "qHTS Assay for Lipid Storage Modulators in Drosophila S3 Cells;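 on cell number change: cells counted by Cell Tracker Red CMTPX staining in the red channel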", "conditions": "BODIPY lipid droplet fluorescence, 18-24 h; for cell number change: measured here: cell count max response, cells fed with added oleic acid", "procedure,_shortened": "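Laser-scanning cytometry quantifies lipid droplet accumulation (500–530 nm total intensity; droplet/cell object ratio) in oleic acid-fed (400 uM added) Drosophila S3 cells treated with a concentration series. 20 uM Triacsin C defined 100% inhibition.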", "key": {"[1]": {"conditions": "measured here: lipid fluorescence (Fed channel) AC50, cells fed with added oleic acid"}, "[2]": {"conditions": "measured here: cell number channel AC50, cells fed with added oleic acid"}}, "note": "This is one part of the list. Further columns of the screen follow, without active or inactive calls. Compounds called inactive in the main read-out are mostly missing here. The note in brackets gives the kind of curve behind each potency; many fits are weak.", "data": [{"smiles": "Fc1ccc(-c2n[nH]c(=S)n2-c2ccc3c(c2)OCCO3)cc1", "values": [{"measurement": "cell number change", "result": 4.41, "unit": "%"}, {"measurement": "AC50", "setting": "[1]", "result": "7.31 µM [falling, single point]"}]}, {"smiles": "COc1ccc(NC(=O)C2CCN(C(=O)Cc3ccccc3)CC2)cc1OC", "values": [{"measurement": "AC50", "setting": "[1]", "result": "3.26 µM [rising, single point]"}]}, {"smiles": "COC(=O)CSCC(=O)Nc1cc2c(cc1C(C)=O)OCO2", "values": [{"measurement": "cell number change", "result": -16.4, "unit": "%"}]}, {"smiles": "COCCOC(=O)/C=C1/NC(=O)CS1", "values": [{"measurement": "cell number change", "result": -69.9, "unit": "%"}, {"measurement": "AC50", "setting": "[2]", "result": "25.9 µM [falling, partial curve]"}, {"measurement": "AC50", "setting": "[1]", "result": "25.9 µM [falling, partial curve]"}]}, {"smiles": "COc1ccc(C2/C=C\\CN(C(=O)C3CCCC3)[C@H](Cc3ccccc3)C(=O)N2Cc2ccc(F)cc2)cc1", "note": "(stereo partly drawn)", "values": [{"measurement": "cell number change", "result": -21.4, "unit": "%"}, {"measurement": "AC50", "setting": "[1]", "result": "29.1 µM [falling, single point]"}]}, {"smiles": "CC(C)CN(C(=O)CN1CCc2ccccc21)c1c(N)n(CC(C)C)c(=O)[nH]c1=O", "values": [{"measurement": "cell number change", "result": 61.5, "unit": "%"}, {"measurement": "AC50", "setting": "[2]", "result": "29.1 µM [rising, single point]"}, {"measurement": "AC50", "setting": "[1]", "result": "18.4 µM [rising, single point]"}]}, {"smiles": "Cc1cccc(OCC(=O)NC2CCCC2)c1", "values": [{"measurement": "cell number change", "result": 7.92, "unit": "%"}]}, {"smiles": "CN(CC(=O)Nc1cccc(F)c1)C(=O)c1cc(S(=O)(=O)N2CCN(c3ccccc3)CC2)ccc1Cl", "values": [{"measurement": "cell number change", "result": 6.95, "unit": "%"}, {"measurement": "AC50", "setting": "[1]", "result": "9.2 µM [falling, partial curve]"}]}, {"smiles": "CCC(C)c1ccccc1N1CC(C(=O)N(C)CC(=O)Nc2cccc(F)c2)CC1=O", "note": "(stereo not drawn)", "values": [{"measurement": "cell number change", "result": -28, "unit": "%"}, {"measurement": "AC50", "setting": "[1]", "result": "29.1 µM [falling, single point]"}]}, {"smiles": "CCOC(=O)Cc1csc(NC(=O)Cn2c(=O)oc3ccccc32)n1", "values": [{"measurement": "AC50", "setting": "[2]", "result": "2.31 µM [rising, partial curve]"}, {"measurement": "AC50", "setting": "[1]", "result": "2.06 µM [rising, partial curve]"}]}, {"smiles": "COc1cc(/C=C/C(=O)OCC(=O)NCC(=O)Nc2cccc(C)c2C)ccc1OC(F)F", "values": [{"measurement": "cell number change", "result": 34.1, "unit": "%"}, {"measurement": "AC50", "setting": "[2]", "result": "29.1 µM [rising, single point]"}]}, {"smiles": "CCCCCCCCOC(=O)c1c(CSC(=N)N)n(C)c2cc(Br)c(OC(C)=O)cc12", "values": [{"measurement": "cell number change", "result": -71.6, "unit": "%"}, {"measurement": "AC50", "setting": "[2]", "result": "18.4 µM [falling, partial curve]"}, {"measurement": "AC50", "setting": "[1]", "result": "23.1 µM [falling, partial curve]"}]}, {"smiles": "COc1ccc(/C=C/C(=O)N(C)C2CCS(=O)(=O)C2)cc1", "note": "(stereo not drawn)", "values": [{"measurement": "cell number change", "result": -5.23, "unit": "%"}]}, {"smiles": "COc1cccc(N2CC(NS(=O)(=O)c3ccc(Cl)cc3)CC2=O)c1", "note": "(stereo not drawn)", "values": [{"measurement": "cell number change", "result": 29, "unit": "%"}, {"measurement": "AC50", "setting": "[1]", "result": "23.1 µM [rising, single point]"}]}, {"smiles": "Cn1c2ccccc2c2c(C(=O)N3CCN(c4ccc(F)cc4)CC3)cn(C3CCCC3)c(=O)c21", "values": [{"measurement": "cell number change", "result": -32, "unit": "%"}, {"measurement": "AC50", "setting": "[2]", "result": "6.51 µM [falling, partial curve]"}, {"measurement": "AC50", "setting": "[1]", "result": "0.517 µM [rising, partial curve]"}]}, {"smiles": "CSc1sccc1/C=C(/C#N)C(=O)c1ccco1", "values": [{"measurement": "cell number change", "result": 111, "unit": "%"}, {"measurement": "AC50", "setting": "[2]", "result": "3.66 µM [rising, full curve, poor fit]"}, {"measurement": "AC50", "setting": "[1]", "result": "6.51 µM [rising, partial curve, poor fit]"}]}, {"smiles": "CN1CCCN(C(=O)c2cc(-c3ccc(Cl)c(Cl)c3Cl)nc3ccccc23)CC1", "values": [{"measurement": "AC50", "setting": "[2]", "result": "0.92 µM [rising, single point]"}, {"measurement": "AC50", "setting": "[1]", "result": "0.00517 µM [rising, full curve, poor fit]"}]}, {"smiles": "CC(=O)c1cc(-c2ccccc2)n(CCC(=O)NCc2cccs2)c1C", "values": [{"measurement": "AC50", "setting": "[2]", "result": "6.51 µM [rising, single point]"}, {"measurement": "AC50", "setting": "[1]", "result": "6.51 µM [rising, single point]"}]}, {"smiles": "O=[N+]([O-])c1cc([N+](=O)[O-])c(Oc2ccc(Br)cc2Br)cc1NN1CCCCC1", "values": [{"measurement": "cell number change", "result": -2.27, "unit": "%"}]}, {"smiles": "CSCCC(NC(=O)c1ccc(C)o1)C(=O)O", "note": "(stereo not drawn)", "values": [{"measurement": "cell number change", "result": -0.404, "unit": "%"}, {"measurement": "AC50", "setting": "[1]", "result": "6.51 µM [rising, partial curve]"}]}, {"smiles": "Cc1c(Cl)cccc1NC(=O)Nc1cccnc1", "values": [{"measurement": "cell number change", "result": -9.9, "unit": "%"}, {"measurement": "AC50", "setting": "[1]", "result": "29.1 µM [rising, single point]"}]}, {"smiles": "Cc1cc(C)cc(NC(=S)N2CCC(NC(=O)C3CC3)CC2)c1", "values": [{"measurement": "cell number change", "result": 16.9, "unit": "%"}, {"measurement": "AC50", "setting": "[1]", "result": "0.517 µM [rising, full curve]"}]}, {"smiles": "Cc1ccc(O)c(CP(=O)(c2ccccc2)c2ccccc2)c1", "values": [{"measurement": "cell number change", "result": 72.8, "unit": "%"}, {"measurement": "AC50", "setting": "[2]", "result": "6.51 µM [rising, partial curve]"}, {"measurement": "AC50", "setting": "[1]", "result": "11.6 µM [rising, partial curve]"}]}, {"smiles": "CC(C)c1nnc(NC(=O)CCS(=O)(=O)c2nc(-c3cccs3)cc(C(F)(F)F)n2)s1", "values": [{"measurement": "cell number change", "result": -92.7, "unit": "%"}, {"measurement": "AC50", "setting": "[2]", "result": "8.2 µM [falling, partial curve]"}, {"measurement": "AC50", "setting": "[1]", "result": "7.31 µM [falling, partial curve]"}]}, {"smiles": "CC1=C(C(=O)N2CCOCC2)C(c2ccsc2)C2=C(CCCC2=O)N1", "note": "(stereo not drawn)", "values": [{"measurement": "cell number change", "result": -3.58, "unit": "%"}, {"measurement": "AC50", "setting": "[1]", "result": "0.517 µM [falling, full curve]"}]}, {"smiles": "COc1ccc(/C=C2\\CC/C(=C\\c3ccc(OC)c(OC)c3)C2=O)cc1OC", "values": [{"measurement": "cell number change", "result": -7.91, "unit": "%"}]}, {"smiles": "COc1ccccc1NC(=O)C1CCN(C(=O)C2CC(=O)N(c3ccc(C)cc3)C2)CC1", "note": "(stereo not drawn)", "values": [{"measurement": "cell number change", "result": 24.4, "unit": "%"}, {"measurement": "AC50", "setting": "[1]", "result": "29.1 µM [rising, single point]"}]}, {"smiles": "O=C(O)c1ccc(C2Nc3ccccc3C(=O)N2Cc2ccccc2)cc1", "note": "(stereo not drawn)", "values": [{"measurement": "cell number change", "result": -4.27, "unit": "%"}]}, {"smiles": "COc1ccccc1NC(=O)CCN1C(=O)/C(=C\\c2cc(OC)c(OC)c(OC)c2)SC1=S", "values": [{"measurement": "cell number change", "result": -21, "unit": "%"}, {"measurement": "AC50", "setting": "[2]", "result": "2.06 µM [falling, partial curve, poor fit]"}, {"measurement": "AC50", "setting": "[1]", "result": "6.51 µM [falling, single point]"}]}, {"smiles": "COc1ccccc1/C=C/C(=O)OCc1nc2ccccc2c(=O)[nH]1", "values": [{"measurement": "cell number change", "result": -50.2, "unit": "%"}]}, {"smiles": "CCOc1ccc(NC(=O)NCCCn2c(C)nc3cc(C)c(C)cc32)cc1", "values": [{"measurement": "cell number change", "result": 112, "unit": "%"}, {"measurement": "AC50", "setting": "[2]", "result": "2.31 µM [rising, full curve]"}, {"measurement": "AC50", "setting": "[1]", "result": "2.59 µM [rising, full curve]"}]}, {"smiles": "O=C(NCc1ccco1)C(c1ccco1)N(CCc1ccccc1)C(=O)Cn1nnc2ccccc21", "note": "(stereo not drawn)", "values": [{"measurement": "cell number change", "result": -29.8, "unit": "%"}, {"measurement": "AC50", "setting": "[1]", "result": "20.6 µM [falling, single point]"}]}, {"smiles": "CCCc1cc(-c2[nH]ncc2-c2ccc3c(c2)OCCCO3)c(O)cc1O", "values": [{"measurement": "cell number change", "result": -81.7, "unit": "%"}, {"measurement": "AC50", "setting": "[2]", "result": "16.4 µM [falling, partial curve]"}, {"measurement": "AC50", "setting": "[1]", "result": "18.4 µM [falling, partial curve]"}]}, {"smiles": "O=C(CN1C(=O)/C(=C/c2ccc(Cl)cc2)SC1=S)NC1C=CS(=O)(=O)C1", "note": "(stereo not drawn)", "values": [{"measurement": "cell number change", "result": -20.6, "unit": "%"}, {"measurement": "AC50", "setting": "[1]", "result": "29.1 µM [falling, single point]"}]}, {"smiles": "CC(C)=CCCC1(C)C=Cc2c(ccc3c2[nH]c2cc(O)c(C)cc23)O1", "note": "(stereo not drawn)", "values": [{"measurement": "cell number change", "result": -62.7, "unit": "%"}, {"measurement": "AC50", "setting": "[2]", "result": "29.1 µM [falling, single point]"}, {"measurement": "AC50", "setting": "[1]", "result": "18.4 µM [falling, single point]"}]}]}
